In the supplement of paper PMC12823440, “Inhibitors supercharge kinase turnover through native proteolytic circuits” (Nature, 2025):
Where a name gives a salt, the structure may show the parent alone. The list shows a part of the results. The calls rarely recur for the same compound in another form.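 Kinases, fused to nanoluciferase, were expressed in K562 cells; luminescence was measured every 4 h from 2 to 18 h as percent of control (DMSO = 100%, positive control = 0%). A time point is decreased if signal falls significantly (2 sigma). Hits were called by the authors by a rule that is not shown; the count of time points alone does not decide it.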

Amino acid sequences for entries named in this document (tags omitted). A change or cut given only in a name is not applied to a line headed by its entry.
UniProt P31749: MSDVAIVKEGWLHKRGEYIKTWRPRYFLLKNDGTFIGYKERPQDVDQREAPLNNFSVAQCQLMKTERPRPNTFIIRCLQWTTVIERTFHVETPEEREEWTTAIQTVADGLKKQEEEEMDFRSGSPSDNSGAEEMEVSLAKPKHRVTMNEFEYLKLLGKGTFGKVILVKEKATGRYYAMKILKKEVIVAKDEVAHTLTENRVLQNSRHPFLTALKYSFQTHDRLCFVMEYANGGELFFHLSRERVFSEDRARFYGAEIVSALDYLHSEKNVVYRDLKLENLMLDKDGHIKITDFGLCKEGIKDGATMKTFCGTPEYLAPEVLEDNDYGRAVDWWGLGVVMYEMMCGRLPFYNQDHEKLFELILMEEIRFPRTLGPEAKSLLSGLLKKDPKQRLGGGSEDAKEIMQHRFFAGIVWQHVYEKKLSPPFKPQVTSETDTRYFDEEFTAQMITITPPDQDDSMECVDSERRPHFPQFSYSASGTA
UniProt Q9UM73: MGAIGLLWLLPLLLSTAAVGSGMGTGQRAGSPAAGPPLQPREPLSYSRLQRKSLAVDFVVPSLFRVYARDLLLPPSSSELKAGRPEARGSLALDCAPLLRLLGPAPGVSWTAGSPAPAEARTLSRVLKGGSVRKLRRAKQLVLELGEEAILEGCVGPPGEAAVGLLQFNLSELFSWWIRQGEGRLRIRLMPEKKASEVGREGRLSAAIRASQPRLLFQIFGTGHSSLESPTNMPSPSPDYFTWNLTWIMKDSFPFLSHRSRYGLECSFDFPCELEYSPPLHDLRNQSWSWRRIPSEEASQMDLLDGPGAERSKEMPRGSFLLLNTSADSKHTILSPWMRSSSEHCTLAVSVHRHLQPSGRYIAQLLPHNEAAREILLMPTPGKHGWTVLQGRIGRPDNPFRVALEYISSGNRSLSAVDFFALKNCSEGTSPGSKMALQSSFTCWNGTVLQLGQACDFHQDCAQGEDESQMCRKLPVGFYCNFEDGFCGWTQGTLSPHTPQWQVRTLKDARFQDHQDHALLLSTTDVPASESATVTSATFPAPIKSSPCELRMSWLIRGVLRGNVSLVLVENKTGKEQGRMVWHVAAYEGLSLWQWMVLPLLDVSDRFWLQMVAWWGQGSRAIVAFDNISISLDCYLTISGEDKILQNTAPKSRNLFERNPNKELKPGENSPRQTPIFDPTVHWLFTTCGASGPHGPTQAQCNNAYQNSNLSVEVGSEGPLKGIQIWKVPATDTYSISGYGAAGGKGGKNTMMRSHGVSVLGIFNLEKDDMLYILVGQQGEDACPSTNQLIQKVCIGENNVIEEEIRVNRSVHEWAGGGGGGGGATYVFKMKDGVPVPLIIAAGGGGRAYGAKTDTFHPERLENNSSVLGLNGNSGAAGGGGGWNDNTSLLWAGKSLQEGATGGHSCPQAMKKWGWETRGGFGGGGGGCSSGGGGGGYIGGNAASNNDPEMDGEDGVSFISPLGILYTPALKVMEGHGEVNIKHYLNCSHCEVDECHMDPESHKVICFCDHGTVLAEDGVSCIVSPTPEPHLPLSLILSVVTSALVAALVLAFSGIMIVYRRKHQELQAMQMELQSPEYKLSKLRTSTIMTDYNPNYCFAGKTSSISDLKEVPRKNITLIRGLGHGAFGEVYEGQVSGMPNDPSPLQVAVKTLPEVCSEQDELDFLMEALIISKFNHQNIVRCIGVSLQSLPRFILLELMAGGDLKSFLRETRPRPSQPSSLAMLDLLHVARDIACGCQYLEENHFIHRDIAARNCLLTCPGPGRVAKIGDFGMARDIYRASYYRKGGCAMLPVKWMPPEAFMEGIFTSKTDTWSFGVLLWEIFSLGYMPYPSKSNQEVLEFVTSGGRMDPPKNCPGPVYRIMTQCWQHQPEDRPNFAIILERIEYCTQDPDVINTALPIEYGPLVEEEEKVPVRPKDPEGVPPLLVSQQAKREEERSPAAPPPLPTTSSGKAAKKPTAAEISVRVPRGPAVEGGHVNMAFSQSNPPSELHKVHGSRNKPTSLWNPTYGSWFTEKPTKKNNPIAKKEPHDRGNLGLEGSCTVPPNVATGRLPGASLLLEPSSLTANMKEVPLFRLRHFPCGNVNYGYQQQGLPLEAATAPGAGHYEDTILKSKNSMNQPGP
UniProt P10398: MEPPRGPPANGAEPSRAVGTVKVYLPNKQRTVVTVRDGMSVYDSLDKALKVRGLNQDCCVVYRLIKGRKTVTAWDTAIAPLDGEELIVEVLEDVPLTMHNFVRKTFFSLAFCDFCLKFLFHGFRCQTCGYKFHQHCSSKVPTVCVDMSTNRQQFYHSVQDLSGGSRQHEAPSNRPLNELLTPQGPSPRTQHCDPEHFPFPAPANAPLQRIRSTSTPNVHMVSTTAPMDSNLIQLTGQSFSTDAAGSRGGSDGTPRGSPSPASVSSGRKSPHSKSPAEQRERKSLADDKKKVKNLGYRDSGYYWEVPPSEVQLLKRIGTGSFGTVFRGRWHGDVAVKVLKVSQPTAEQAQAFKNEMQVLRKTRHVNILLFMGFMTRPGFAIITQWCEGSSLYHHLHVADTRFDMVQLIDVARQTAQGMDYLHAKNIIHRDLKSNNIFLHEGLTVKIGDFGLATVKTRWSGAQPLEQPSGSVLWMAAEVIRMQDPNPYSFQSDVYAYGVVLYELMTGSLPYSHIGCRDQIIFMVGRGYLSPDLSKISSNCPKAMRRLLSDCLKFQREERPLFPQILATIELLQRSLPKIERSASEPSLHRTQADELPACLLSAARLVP
UniProt O14965: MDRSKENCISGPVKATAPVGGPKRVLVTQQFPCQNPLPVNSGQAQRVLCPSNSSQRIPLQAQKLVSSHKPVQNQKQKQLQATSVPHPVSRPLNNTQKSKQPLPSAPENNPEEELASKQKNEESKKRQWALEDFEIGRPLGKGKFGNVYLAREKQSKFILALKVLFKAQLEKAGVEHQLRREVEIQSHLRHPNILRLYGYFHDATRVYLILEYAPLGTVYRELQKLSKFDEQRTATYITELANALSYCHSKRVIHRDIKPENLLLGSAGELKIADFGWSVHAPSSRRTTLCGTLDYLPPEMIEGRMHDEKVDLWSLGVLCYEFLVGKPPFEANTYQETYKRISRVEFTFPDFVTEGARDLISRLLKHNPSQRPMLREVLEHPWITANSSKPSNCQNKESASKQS
UniProt Q96GD4, whole entry: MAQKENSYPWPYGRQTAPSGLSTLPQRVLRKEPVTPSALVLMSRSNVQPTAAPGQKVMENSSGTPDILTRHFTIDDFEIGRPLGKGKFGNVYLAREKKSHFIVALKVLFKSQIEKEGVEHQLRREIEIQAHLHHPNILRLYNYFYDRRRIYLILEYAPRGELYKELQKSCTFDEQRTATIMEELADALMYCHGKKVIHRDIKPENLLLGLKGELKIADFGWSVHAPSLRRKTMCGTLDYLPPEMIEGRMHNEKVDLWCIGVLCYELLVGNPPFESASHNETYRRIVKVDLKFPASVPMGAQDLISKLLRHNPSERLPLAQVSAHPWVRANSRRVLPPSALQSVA
UniProt P51451: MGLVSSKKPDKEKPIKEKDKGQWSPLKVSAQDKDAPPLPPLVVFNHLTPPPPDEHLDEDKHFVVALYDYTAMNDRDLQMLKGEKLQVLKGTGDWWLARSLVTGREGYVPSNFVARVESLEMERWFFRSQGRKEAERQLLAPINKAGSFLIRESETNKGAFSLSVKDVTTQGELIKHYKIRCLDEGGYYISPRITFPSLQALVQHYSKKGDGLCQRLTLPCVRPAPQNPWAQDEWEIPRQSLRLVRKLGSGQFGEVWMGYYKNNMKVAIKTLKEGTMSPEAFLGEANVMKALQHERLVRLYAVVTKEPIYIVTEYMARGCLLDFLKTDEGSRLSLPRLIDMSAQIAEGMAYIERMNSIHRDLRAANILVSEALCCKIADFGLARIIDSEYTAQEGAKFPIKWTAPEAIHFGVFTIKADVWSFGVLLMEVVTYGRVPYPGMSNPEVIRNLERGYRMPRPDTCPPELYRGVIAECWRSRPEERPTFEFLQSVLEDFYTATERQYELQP
UniProt P15056, whole entry, looked up: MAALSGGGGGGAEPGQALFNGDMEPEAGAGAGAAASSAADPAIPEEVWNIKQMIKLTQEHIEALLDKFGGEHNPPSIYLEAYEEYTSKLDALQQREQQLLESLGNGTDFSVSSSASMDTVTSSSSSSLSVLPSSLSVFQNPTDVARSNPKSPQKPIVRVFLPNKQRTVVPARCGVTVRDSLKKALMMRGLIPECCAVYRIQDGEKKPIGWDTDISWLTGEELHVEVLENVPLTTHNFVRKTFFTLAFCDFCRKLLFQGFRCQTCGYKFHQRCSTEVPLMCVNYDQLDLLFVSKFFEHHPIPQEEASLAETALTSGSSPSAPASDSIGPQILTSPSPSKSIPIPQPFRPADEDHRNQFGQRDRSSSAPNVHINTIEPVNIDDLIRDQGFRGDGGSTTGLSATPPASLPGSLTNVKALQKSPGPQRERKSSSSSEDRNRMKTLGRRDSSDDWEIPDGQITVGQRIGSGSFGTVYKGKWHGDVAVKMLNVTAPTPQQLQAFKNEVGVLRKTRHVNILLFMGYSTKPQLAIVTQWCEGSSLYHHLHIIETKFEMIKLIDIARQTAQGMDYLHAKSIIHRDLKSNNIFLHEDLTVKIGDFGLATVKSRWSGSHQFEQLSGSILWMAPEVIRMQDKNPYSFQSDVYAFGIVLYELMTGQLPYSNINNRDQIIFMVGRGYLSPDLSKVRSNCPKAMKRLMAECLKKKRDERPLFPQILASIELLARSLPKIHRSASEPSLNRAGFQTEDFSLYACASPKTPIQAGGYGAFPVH
UniProt Q13555: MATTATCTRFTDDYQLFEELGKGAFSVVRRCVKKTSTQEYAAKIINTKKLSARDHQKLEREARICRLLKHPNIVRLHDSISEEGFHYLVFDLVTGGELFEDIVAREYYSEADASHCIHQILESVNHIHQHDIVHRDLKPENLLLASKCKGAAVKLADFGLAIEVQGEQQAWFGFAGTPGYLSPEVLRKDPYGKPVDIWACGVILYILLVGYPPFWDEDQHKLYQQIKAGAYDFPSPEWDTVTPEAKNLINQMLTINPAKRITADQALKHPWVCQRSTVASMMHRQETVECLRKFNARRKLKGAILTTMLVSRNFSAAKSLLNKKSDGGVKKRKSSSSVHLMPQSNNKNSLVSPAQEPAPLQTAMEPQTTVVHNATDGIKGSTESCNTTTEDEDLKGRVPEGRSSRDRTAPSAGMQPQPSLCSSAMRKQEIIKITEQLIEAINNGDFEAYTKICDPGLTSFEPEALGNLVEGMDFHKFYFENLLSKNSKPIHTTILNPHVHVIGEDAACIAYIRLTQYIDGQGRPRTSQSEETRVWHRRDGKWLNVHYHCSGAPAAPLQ
UniProt Q15131: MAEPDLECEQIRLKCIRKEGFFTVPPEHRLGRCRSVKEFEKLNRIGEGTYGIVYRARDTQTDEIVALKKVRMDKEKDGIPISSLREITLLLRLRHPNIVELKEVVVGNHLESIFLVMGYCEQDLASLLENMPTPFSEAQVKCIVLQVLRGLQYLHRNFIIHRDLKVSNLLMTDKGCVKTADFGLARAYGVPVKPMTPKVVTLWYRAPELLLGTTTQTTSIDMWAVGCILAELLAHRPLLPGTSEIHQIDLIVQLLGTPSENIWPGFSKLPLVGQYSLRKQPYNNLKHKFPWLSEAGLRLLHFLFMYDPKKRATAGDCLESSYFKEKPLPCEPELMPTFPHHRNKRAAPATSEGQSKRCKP
UniProt Q00526: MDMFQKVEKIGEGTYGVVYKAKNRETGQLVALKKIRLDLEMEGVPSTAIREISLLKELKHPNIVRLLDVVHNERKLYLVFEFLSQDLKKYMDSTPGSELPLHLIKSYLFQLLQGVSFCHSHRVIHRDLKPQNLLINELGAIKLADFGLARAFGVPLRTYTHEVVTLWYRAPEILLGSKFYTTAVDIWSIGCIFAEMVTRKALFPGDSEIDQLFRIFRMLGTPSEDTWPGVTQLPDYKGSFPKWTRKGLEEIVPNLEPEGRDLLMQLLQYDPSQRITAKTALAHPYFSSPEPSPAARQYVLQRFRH
UniProt Q00535, whole entry, looked up: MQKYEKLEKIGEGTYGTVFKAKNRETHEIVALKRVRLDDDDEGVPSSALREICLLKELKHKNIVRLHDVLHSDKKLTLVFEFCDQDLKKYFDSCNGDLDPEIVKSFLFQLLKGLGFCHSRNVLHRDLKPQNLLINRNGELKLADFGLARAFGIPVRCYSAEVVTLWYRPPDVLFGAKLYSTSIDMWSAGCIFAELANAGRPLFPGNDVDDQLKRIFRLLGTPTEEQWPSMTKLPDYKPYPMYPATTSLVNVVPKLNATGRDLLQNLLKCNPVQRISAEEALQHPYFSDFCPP
UniProt Q00534, whole entry: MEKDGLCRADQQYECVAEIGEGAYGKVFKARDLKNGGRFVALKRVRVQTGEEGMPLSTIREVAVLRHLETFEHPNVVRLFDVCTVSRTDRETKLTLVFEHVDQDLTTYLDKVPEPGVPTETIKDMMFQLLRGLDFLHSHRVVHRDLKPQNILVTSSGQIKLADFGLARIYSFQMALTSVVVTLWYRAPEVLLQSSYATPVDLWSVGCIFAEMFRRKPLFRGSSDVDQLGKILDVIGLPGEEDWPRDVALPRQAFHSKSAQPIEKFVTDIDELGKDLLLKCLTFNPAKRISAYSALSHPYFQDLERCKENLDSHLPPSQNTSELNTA

Columns and labels:
Experiment in all cases: kinase-Nluc reporter destabilization hit call (1 = scored as downregulated) (binary); higher = compound decreases kinase abundance
Details in all cases: K562, 2-18 h
ABL1 = ABL1 (UniProt P00519)
AKT1 = AKT1 (UniProt P31749)
ALK = ALK (UniProt Q9UM73)
ARAF = ARAF (UniProt P10398)
AURKA = AURKA (UniProt O14965)
AURKB = AURKB (UniProt Q96GD4)
AURKC = AURKC (UniProt Q9UQB9)
BLK = BLK (UniProt P51451)
BMX = BMX (UniProt P51813)
BRAF = BRAF (UniProt P15056)
BRAF_V600E = test system: BRAF_V600E
BTK = BTK (UniProt Q06187)
CAMK2A = CAMK2A (UniProt Q9UQM7)
CAMK2G = CAMK2G (UniProt Q13555)
CDK10 = CDK10 (UniProt Q15131)
CDK2 = CDK2 (UniProt P24941)
CDK3 = CDK3 (UniProt Q00526)
CDK4 = CDK4 (UniProt P11802)
CDK5 = CDK5 (UniProt Q00535)
CDK6 = CDK6 (UniProt Q00534)

Measured: kinase-Nluc reporter destabilization hit call

COc1ccnc(C[S+]([O-])c2nc3cc(-n4cccc4)ccc3[nH]2)c1C (stereo not given) [Ilaprazole]
inactive: ABL1; 10 µM 0 | AKT1; 10 µM 0 | ALK; 10 µM 0 | ARAF; 10 µM 0 | AURKA; 10 µM 0 | AURKB; 10 µM 0 | AURKC; 10 µM 0 | BLK; 10 µM 0 | BMX; 10 µM 0 | BRAF; 10 µM 0 | BRAF_V600E; 10 µM 0 | BTK; 10 µM 0 | CAMK2A; 10 µM 0 | CAMK2G; 10 µM 0 | CDK10; 10 µM 0 | CDK2; 10 µM 0 | CDK3; 10 µM 0 | CDK4; 10 µM 0 | CDK5; 10 µM 0 | CDK6; 10 µM 0

C/C=C1\C(=O)C[C@H]2[C@@H]3CCC4=CC(=O)CC[C@]4(C)[C@H]3CC[C@]12C [Guggulsterone]
inactive: ABL1; 10 µM 0 | AKT1; 10 µM 0 | ALK; 10 µM 0 | ARAF; 10 µM 0 | AURKA; 10 µM 0 | AURKB; 10 µM 0 | AURKC; 10 µM 0 | BLK; 10 µM 0 | BMX; 10 µM 0 | BRAF; 10 µM 0 | BRAF_V600E; 10 µM 0 | BTK; 10 µM 0 | CAMK2A; 10 µM 0 | CAMK2G; 10 µM 0 | CDK10; 10 µM 0 | CDK2; 10 µM 0 | CDK3; 10 µM 0 | CDK4; 10 µM 0 | CDK5; 10 µM 0 | CDK6; 10 µM 0

N#CCNC(=O)c1ccc(-c2ccnc(Nc3ccc(N4CCOCC4)cc3)n2)cc1 [Momelotinib]
inactive: ABL1; 10 µM 0 | AKT1; 10 µM 0 | ALK; 10 µM 0 | ARAF; 10 µM 0 | AURKA; 10 µM 0 | AURKB; 10 µM 0 | AURKC; 10 µM 0 | BLK; 10 µM 0 | BMX; 10 µM 0 | BRAF; 10 µM 0 | BRAF_V600E; 10 µM 0 | BTK; 10 µM 0 | CAMK2A; 10 µM 0 | CAMK2G; 10 µM 0 | CDK10; 10 µM 0 | CDK2; 10 µM 0 | CDK3; 10 µM 0 | CDK4; 10 µM 0 | CDK5; 10 µM 0 | CDK6; 10 µM 0

C=CC(=O)Nc1cc(Nc2nccc(-c3cn(C4CC4)c4ccccc34)n2)c(OC)cc1N(C)CCN(C)C [Almonertinib]
inactive: ABL1; 2.5 µM 0 | AKT1; 2.5 µM 0 | ALK; 2.5 µM 0 | ARAF; 2.5 µM 0 | AURKA; 2.5 µM 0 | AURKB; 2.5 µM 0 | AURKC; 2.5 µM 0 | BLK; 2.5 µM 0 | BMX; 2.5 µM 0 | BRAF; 2.5 µM 0 | BRAF_V600E; 2.5 µM 0 | BTK; 2.5 µM 0 | CAMK2A; 2.5 µM 0 | CAMK2G; 2.5 µM 0 | CDK10; 2.5 µM 0 | CDK2; 2.5 µM 0 | CDK3; 2.5 µM 0 | CDK4; 2.5 µM 0 | CDK5; 2.5 µM 0 | CDK6; 2.5 µM 0

C=CC(=O)Nc1cc(Nc2nccc(-c3cn(C)c4ccccc34)n2)c(OC)cc1N(C)CCN(C)C [Osimertinib (dimesylate)]
inactive: ABL1; 2.5 µM 0 | AKT1; 2.5 µM 0 | ALK; 2.5 µM 0 | ARAF; 2.5 µM 0 | AURKA; 2.5 µM 0 | AURKB; 2.5 µM 0 | AURKC; 2.5 µM 0 | BLK; 2.5 µM 0 | BMX; 2.5 µM 0 | BRAF; 2.5 µM 0 | BRAF_V600E; 2.5 µM 0 | BTK; 2.5 µM 0 | CAMK2A; 2.5 µM 0 | CAMK2G; 2.5 µM 0 | CDK10; 2.5 µM 0 | CDK2; 2.5 µM 0 | CDK3; 2.5 µM 0 | CDK4; 2.5 µM 0 | CDK5; 2.5 µM 0 | CDK6; 2.5 µM 0

Nc1ncnc2c1c(-c1ccc(Oc3ccccc3)cc1)nn2[C@@H]1CCCNC1 [IBT6A (hydrochloride)]
inactive: ABL1; 2.5 µM 0 | AKT1; 2.5 µM 0 | ALK; 2.5 µM 0 | ARAF; 2.5 µM 0 | AURKA; 2.5 µM 0 | AURKB; 2.5 µM 0 | AURKC; 2.5 µM 0 | BLK; 2.5 µM 0 | BMX; 2.5 µM 0 | BRAF; 2.5 µM 0 | BRAF_V600E; 2.5 µM 0 | BTK; 2.5 µM 0 | CAMK2A; 2.5 µM 0 | CAMK2G; 2.5 µM 0 | CDK10; 2.5 µM 0 | CDK2; 2.5 µM 0 | CDK3; 2.5 µM 0 | CDK4; 2.5 µM 0 | CDK5; 2.5 µM 0 | CDK6; 2.5 µM 0

CCCC(=O)Nc1ncnc2c1ncn2[C@@H]1O[C@@H]2COP(=O)(O)O[C@H]2[C@H]1OC(=O)CCC [Bucladesine (calcium)]
inactive: ABL1; 10 µM 0 | AKT1; 10 µM 0 | ALK; 10 µM 0 | ARAF; 10 µM 0 | AURKA; 10 µM 0 | AURKB; 10 µM 0 | AURKC; 10 µM 0 | BLK; 10 µM 0 | BMX; 10 µM 0 | BRAF; 10 µM 0 | BRAF_V600E; 10 µM 0 | BTK; 10 µM 0 | CAMK2A; 10 µM 0 | CAMK2G; 10 µM 0 | CDK10; 10 µM 0 | CDK2; 10 µM 0 | CDK3; 10 µM 0 | CDK4; 10 µM 0 | CDK5; 10 µM 0 | CDK6; 10 µM 0

COCCOc1cc(F)c2c(Nc3ccc(NC(=O)Cn4cc(C(C)C)nn4)cc3)ncnc2c1
inactive: ABL1; 10 µM 0 | AKT1; 10 µM 0 | ALK; 10 µM 0 | ARAF; 10 µM 0 | AURKA; 10 µM 0 | AURKB; 10 µM 0 | AURKC; 10 µM 0 | BLK; 10 µM 0 | BMX; 10 µM 0 | BRAF; 10 µM 0 | BRAF_V600E; 10 µM 0 | BTK; 10 µM 0 | CAMK2A; 10 µM 0 | CAMK2G; 10 µM 0 | CDK10; 10 µM 0 | CDK2; 10 µM 0 | CDK3; 10 µM 0 | CDK4; 10 µM 0 | CDK5; 10 µM 0 | CDK6; 10 µM 0

C#Cc1cccc(Nc2ncnc3cc(OCCOC)c(OCCOC)cc23)c1 [Erlotinib (Hydrochloride)]
inactive: ABL1; 10 µM 0 | AKT1; 10 µM 0 | ALK; 10 µM 0 | ARAF; 10 µM 0 | AURKA; 10 µM 0 | AURKB; 10 µM 0 | AURKC; 10 µM 0 | BLK; 10 µM 0 | BMX; 10 µM 0 | BRAF; 10 µM 0 | BRAF_V600E; 10 µM 0 | BTK; 10 µM 0 | CAMK2A; 10 µM 0 | CAMK2G; 10 µM 0 | CDK10; 10 µM 0 | CDK2; 10 µM 0 | CDK3; 10 µM 0 | CDK4; 10 µM 0 | CDK5; 10 µM 0 | CDK6; 10 µM 0
